At least one compound was matched to its structure with a doubt left.
Assays:
Format in all cases: cell-based, mouse
[1] = tested on: ESC-derived cardiac spheroids (Hcn4-GFP; Tbx1-Cre; Ai9); assay: heart field specification: Hcn4-GFP+ and Tbx1-Cre, RFP+ CPCs in cardiac spheroids by FACS at day 5.5; conditions: in combination with Bmp4 (1.25 ng/ml), Noggin 100 ng/ml, dorsomorphin, K2288, DMH1 100 nM
Description: Next, an embryonic stem cell (ESC) line (ESCHcn4-GFP; Tbx1-Cre Ai9) was established from the mice to determine if heart field specification can be recapitulated in a PSC system. It was hypothesized that a 3D multicellular system would better resemble heart field development in vivo, as early development is a highly dynamic process that involves tissue-tissue interactions between multiple cell types. Since CPCs are specified during mid-late gastrulation 7, 8, multicellular 3D spheroids were generated with the PSCs and treated them with various concentrations of Activin A and Bmp4 to determine whether induction of the early mesoderm influences heart field specification (FIGS. 1C and 1D).
IPA utilizes an input gene list and a curated database of literature-derived pathways to infer which canonical pathways are most significant to the input data set. […] The effect of Bmp signals was evaluated during heart field specification. In order to minimize the possibility of influencing heart field cells after induction, all of the data were analyzed within 12 hs after the appearance of GFP^+/RFP^+ cells. […]
Mouse embryos (E7.75) were dissected using forceps under a stereomicroscope (Zeiss) and regions of interest were dissociated and harvested using TrypLE. […] Single-cells were analyzed for RFP/GFP expression or sorted using a SH800 Cell sorter (Sony Biotechnologies). […]

[2] = tested on: ESC-derived cardiac spheroids; assay: qPCR of FHF (tbx5, hcn4) and SHF (tbx1, fgf10) markers in treated spheroids; conditions: in combination with Bmp4 (1.25 ng/ml), Wnts 100 ng/ml, dorsomorphin, K2288, DMH1 100 nM
Description: To investigate the crosstalk between Bmp and Wnt signals, the spheroids were treated with Bmp4 and Wnts in combinations and analyzed expression levels of FHF (tbx5, hcn4) and SHF (tbx1, fgf10) markers. […]
RNA isolation was performed using either RNeasy Micro Kit (Cat #74004, Qiagen) or […]® PicoPure® RNA Isolation Kit following the manufacturer's instructions, and cDNA was generated using the high-capacity cDNA reverse transcription kit (Applied Biosystems). qPCR reactions were performed using the Taqman (Applied Biosystems) or Sybr Select qPCR mix (Thermo Fisher) with indicated primers. […] All samples were also analyzed for gapdh to exclude false-positive results.

canonical Wnt activity = assay: Topflash luciferase assay; conditions: in combination with Bmp4 (1.25 ng/ml); 88 h of differentiation
Description: To test this, canonical Wnt activity was measured with its readout Topflash.
For Tbx1 and Tbx5 knockdown experiments, Tbx1 and Tbx5 ON-TARGETplus SMARTpool siRNA or scrambled siRNA (Dharmacon/Thermo Fisher Scientic) was used at 5 nM for cell transfection. Cells were transfected with Lipofectamine LTX (Life Technologies) in single-cell suspensions. For TOP-flash luciferase assays, mESCs were transfected with Topflash constructs and Renilla constructs and analyzed as previously described 5.

c1cc(-c2cnn3cc(-c4ccc(OCCN5CCCCC5)cc4)cnc23)ccn1 [dorsomorphin, reference compound]
Bmp4-mediated induction of RFP+ cells (SHF) ([1]; IWP-2 0.5 μM): without significantly affecting | Bmp4-mediated induction of GFP+ cells (FHF) [1]: suppressed | expression of SHF markers (tbx1, fgf10) ([2]; IWP-2 0.5 μM): without significantly affecting | expression of FHF markers (tbx5, hcn4) [2]: suppressed | topflash / Wnt activity (canonical Wnt activity): without significantly affecting

— patent US20220073883A1, “COMPOSITIONS AND METHODS FOR GENERATION OF HEART FIELD-SPECIFIC PROGENITOR CELLS” (The Johns Hopkins University, priority 2018, published 2022)
